Test results: PubChem BioAssay AID1347076 (National Center for Advancing Translational Sciences (NCATS), 2019)
Hit rate of the full screen: of about 400,000 compounds, about 13,000 (3.2%) were called active. The shares of active, inactive and inconclusive entries below differ from those in the screen. Calls follow the shape of the dose curve; as a rule, active = well fitted cell-killing curve with a large enough effect; inconclusive = small, poorly fitted or top-dose-only effect, or effect the other way; inactive = flat fitted curve, though single readings scatter. A potency beside an inconclusive call is a rough fit, not a confirmed value.

Assay: qHTS assay for MDR1-selective chemotherapeutics: Primary screen using the drug-selected MDR subline cells KB-V1; also: nearly all actives have a fitted effect of over 60% in size
Details: KB-V1 MDR cells viability, CellTiter-Glo, 72 h; activity change, negative = cytotoxicity: at 46.1 µM (top of the series)
Outline: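 Potencies derive from concentration-effect curves fitted to normalized luminescence (CellTiter-Glo) of KB-V1 cells treated for 72 h at 37 degrees C in phenol-red-free DMEM containing 10% FBS.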
% is scaled to controls: 0 for no effect and ±100 for the full control effect; potency is read from the fitted curve at half-maximal effect.

**Q.** For `OC(CCN1CC2CCC(CC2)C1)(Cc1ccccc1)c1ccco1` (configuration not stated), which “activity change, negative = cytotoxicity” value is on record?
**A.** Its value is inactive: 9.43%.

**Q.** With `NS(=O)(=O)c1ccc(CCNC(=O)Cc2c[nH]c3ccccc23)cc1` as the molecule, how does the Potency read?
**A.** The Potency was inconclusive: 29.1 µM [rising, single point].

**Q.** With `C[C@H]1O[C@@H](O[C@H]2[C@@H](O)C[C@H](O[C@H]3[C@@H](O)C[C@H](O[C@H]4CC[C@@]5(C)[C@H](CC[C@@H]6[C@@H]5C[C@@H](O)[C@]5(C)[C@@H](C7=CC(=O)OC7)CC[C@]65O)C4)O[C@@H]3C)O[C@@H]2C)C[C@H](O)[C@@H]1O` as the molecule, how does the Potency read?
**A.** The Potency was active: 0.411 µM.

**Q.** For `Cn1nc(C(C)(C)C)cc1NC(=O)C1(C)CCN1C(=O)c1ccccc1CCc1ccccc1` (configuration not stated), which “activity change, negative = cytotoxicity” value is on record?
**A.** Its value is inactive: 2.34%.

**Q.** With `CCn1c(C(=O)N2CCC(Cc3ccccc3)CC2)cc2sccc21` as the molecule, how does the “activity change, negative = cytotoxicity” value read?
**A.** The value was inactive: -18%.

**Q.** Which Potency does the source give for `Cn1c(=O)[nH]c(=O)c2c1nc(NCCO)n2CCOc1ccccc1` here?
**A.** Its Potency is inconclusive: 3.26 µM [rising, full curve].

**Q.** Which “activity change, negative = cytotoxicity” value does the source give for `Cc1ccc(S(=O)(=O)N/N=C\c2ccc([N+](=O)[O-])o2)cc1C` here?
**A.** The value was inactive: 0%.

**Q.** With `O=c1c2ccccc2n(Cc2ccccc2F)c(=O)n1Cc1ccccc1F` as the molecule, how does the Potency read?
**A.** Its Potency is inconclusive: 7.31 µM [cytotoxic, partial curve, poor fit].

**Q.** Which “activity change, negative = cytotoxicity” value does the source give for `COc1ccc2ncnc(NCc3cccs3)c2c1-c1ccc2c(c1)OCO2` here?
**A.** The value was inactive: -12.2%.

**Q.** For `Cc1ccc(CN2C(=O)C3(c4ccccc42)N(c2ccc(C)c(Cl)c2)C(=O)CS3(=O)=O)cc1` (configuration not stated), which Potency is on record?
**A.** The Potency was inconclusive: 16.4 µM [cytotoxic, single point].

**Q.** With `Cc1ccc(S(=O)(=O)/N=C(\N)Nc2nc(C)c3ccccc3n2)cc1` as the molecule, how does the Potency read?
**A.** Its Potency is active: 9.2 µM.

**Q.** With `Cc1cc([N+](=O)[O-])ccc1NC(=O)c1cncc(Br)c1` as the molecule, how does the Potency read?
**A.** The Potency was inconclusive: 29.1 µM [cytotoxic, single point].

**Q.** With `O=C(NCC1CCCO1)C1CCN(C2CCN(C(=O)Cc3ccsc3)CC2)CC1` (configuration not stated) as the molecule, how does the Potency read?
**A.** Its Potency is inconclusive: 11.6 µM [rising, partial curve, poor fit].

**Q.** For `CCn1ccnc1C(O)(c1ccccc1)c1ccccc1`, which “activity change, negative = cytotoxicity” value is on record?
**A.** Its value is inactive: 11.2%.

**Q.** For `Cc1c(C(=O)N2CCN(c3ncccn3)CC2)sc2nc3n(c(=O)c12)CCCC3`, which Potency is on record?
**A.** The Potency was inconclusive: 2.91 µM [cytotoxic, partial curve, poor fit].

**Q.** With `COc1ccc(NC(=O)CSc2cn(CCNC(=O)c3ccc(OC)cc3)c3ccccc23)cc1` as the molecule, how does the “activity change, negative = cytotoxicity” value read?
**A.** Its value is inactive: -5.84%.

**Q.** Which “activity change, negative = cytotoxicity” value does the source give for `COc1ccc(-c2ccc(OC)c([C@H]3[C@H]4C=CC[C@@H](C)[C@@H]4C(=O)N3Cc3ccccc3)c2)cc1` here?
**A.** The value was inactive: -11.7%.

**Q.** For `CC(C)(C)OC(=O)N(Cc1ccccc1)Cc1cccc(OCc2cccc(NC(=O)C3CC3)c2)c1`, which Potency is on record?
**A.** The Potency was inconclusive: 29.1 µM [cytotoxic, single point].

**Q.** For `O=C(NCC1CCCO1)c1[nH]c(C(F)(F)F)nc1-c1ccccc1` (configuration not stated), which “activity change, negative = cytotoxicity” value is on record?
**A.** Its value is inactive: -4.47%.

**Q.** Which Potency does the source give for `O=C(Nc1nc(-c2ccccc2)cs1)c1ccc(S(=O)(=O)N2CCc3ccccc32)cc1` here?
**A.** The Potency was inconclusive: 11.6 µM [cytotoxic, partial curve, poor fit].

**Q.** For `COC(=O)C1=C(C)N(C2CCCCC2)C(=O)C1`, which “activity change, negative = cytotoxicity” value is on record?
**A.** The value was inactive: 14.6%.

**Q.** With `Cc1nn(-c2ccccc2)c2c1C(c1ccc([N+](=O)[O-])cc1)N1C(=N2)C(=O)Nc2ccccc21` (configuration not stated) as the molecule, how does the Potency read?
**A.** The Potency was active: 18.4 µM.

**Q.** For `NC(=O)COC(=O)c1ccc(Cl)c(S(=O)(=O)N2CCCCCC2)c1`, which Potency is on record?
**A.** Its Potency is inconclusive: 29.1 µM [rising, single point].

**Q.** Which “activity change, negative = cytotoxicity” value does the source give for `COc1cccc(N2CCN(c3nc(C)cc(C)c3C#N)CC2)c1` here?
**A.** Its value is inactive: -15.7%.

**Q.** Which “activity change, negative = cytotoxicity” value does the source give for `Cc1cccc(O)c1C` here?
**A.** The value was inactive: -14.1%.

**Q.** Which Potency does the source give for `COc1ccc2nc(C)cc(SCC(=O)Nc3c(C)cc(C)cc3C)c2c1` here?
**A.** The Potency was active: 13 µM.

**Q.** With `Cc1ccccc1/C=C\c1nc2ccccc2c(=O)[nH]1` as the molecule, how does the Potency read?
**A.** Its Potency is inconclusive: 11.6 µM [cytotoxic, partial curve].

**Q.** For `S=C(NCCc1ccccc1)Nc1ccc(Cl)cc1`, which activity change, negative = cytotoxicity is on record?
**A.** Its activity change, negative = cytotoxicity is inconclusive: -37.2% [cytotoxic].

**Q.** For `CCC1NC(=O)c2cc3ccccc3cc2-n2c1nc1cc(F)ccc1c2=O` (configuration not stated), which Potency is on record?
**A.** The Potency was inconclusive: 7.31 µM [cytotoxic, partial curve].

**Q.** With `CCC(C)[C@H](N)c1nnc(SCc2ccc(Cl)c(Cl)c2)o1` (some centres not stated) as the molecule, how does the Potency read?
**A.** The Potency was inconclusive: 20.6 µM [cytotoxic, partial curve].

**Q.** For `Cc1nn(Cc2ccccc2)c(Cl)c1C(=O)OCc1nnc(-c2ccc(Cl)cc2)o1`, which “activity change, negative = cytotoxicity” value is on record?
**A.** Its value is inactive: -28.9%.

**Q.** With `CN(C)CCNC(=O)/C(=C/c1ccc(-c2ccc(Cl)cc2Cl)o1)NC(=O)c1ccccc1` as the molecule, how does the Potency read?
**A.** Its Potency is inconclusive: 29.1 µM [cytotoxic, single point].

**Q.** For `Cc1ccc(S(=O)(=O)N(C)C)cc1NC(=O)C1CCCCC1`, which “activity change, negative = cytotoxicity” value is on record?
**A.** Its value is inactive: -1.63%.

**Q.** With `CCN(CC(=O)NCc1ccc(F)cc1)C(=O)/C=C/c1ccc(OC)cc1` as the molecule, how does the “activity change, negative = cytotoxicity” value read?
**A.** Its value is inactive: -20.3%.

**Q.** Which “activity change, negative = cytotoxicity” value does the source give for `COc1ccc(-c2cc(C(=O)N3CCCCCC3)c3ccccc3n2)cc1OC` here?
**A.** The value was inactive: 3.2%.

**Q.** Which “activity change, negative = cytotoxicity” value does the source give for `c1ccc(Oc2nc(-c3ccccn3)nc3ccccc23)cc1` here?
**A.** Its value is inactive: -27.6%.

**Q.** For `CCOC(=O)CSc1cccc2cccnc12`, which Potency is on record?
**A.** The Potency was active: 23.1 µM.

**Q.** With `Cc1ccc(S(=O)(=O)N2CCOCC2)cc1NC(=O)Cn1nc(C)c([N+](=O)[O-])c1C` as the molecule, how does the Potency read?
**A.** Its Potency is inconclusive: 0.0517 µM [rising, full curve].

**Q.** Which “activity change, negative = cytotoxicity” value does the source give for `COc1ccc(-c2cccc(NS(=O)(=O)c3ccc(NC(C)=O)cc3)c2)nn1` here?
**A.** Its value is inactive: 13.8%.

**Q.** For `CSCCC(NS(=O)(=O)c1ccc2ccccc2c1)C(=O)OCC(=O)c1ccc(C(C)C)cc1` (configuration not stated), which Potency is on record?
**A.** Its Potency is active: 18.4 µM.

**Q.** For `CCc1nnc(NC(=O)C2CCCN(c3nc(C)cc(C)n3)C2)s1` (configuration not stated), which Potency is on record?
**A.** The Potency was active: 9.2 µM.

**Q.** Which Potency does the source give for `CC(C)(C)OC(=O)N1CCC(c2c(C(=O)NCCN3CCOCC3)cnn2-c2ccc(F)cc2F)CC1` here?
**A.** The Potency was inconclusive: 16.4 µM [rising, partial curve, poor fit].

**Q.** Which “activity change, negative = cytotoxicity” value does the source give for `O=C(O)CCCCCN1C(=O)c2ccc(C(=O)O)cc2C1=O` here?
**A.** Its value is inactive: 0.722%.

**Q.** For `COc1ccc(C)cc1NC(=O)CSc1nnc(COc2ccc(C)cc2)n1Cc1ccco1`, which Potency is on record?
**A.** Its Potency is active: 9.2 µM.

**Q.** For `O=[N+]([O-])c1ccc2c(c1)C=C/C2=C\c1ccc(C=S)cc1`, which Potency is on record?
**A.** Its Potency is inconclusive: 32.6 µM [rising, single point].

**Q.** For `CCOc1ccc(C(=O)N(Cc2ccccc2)c2cccc(C)c2)cc1OC`, which Potency is on record?
**A.** The Potency was inconclusive: 8.2 µM [cytotoxic, partial curve].

**Q.** For `CCCCN(C)CCNC(=O)c1cc(-c2ccc(Cl)s2)nc2ccccc12`, which “activity change, negative = cytotoxicity” value is on record?
**A.** The value was inactive: -3.18%.
